Measurements taken from article PMC9332703.

Target: N terminus of S1 (S1 1-61) (rice)
Assay: two-hybrid; WA1 and its truncations in pGADT7 (AD), C1 and S1 full-length or truncated in pGBKT7 (BD); yeast strain AH109; growth on SD-Trp/-Leu and SD-Trp/-Leu/-His/-Ade

For “WA1 (WD40 for Anthocyanin biosynthesis), full length (from UniProt Q3V826)”, the binding was “binds”.

No constants are given. Whether binding was seen depends on the method and setting. Binding calls can cover weak binding; strength is not graded here.
